{"source": "PubChem BioAssay AID743454 – Peter MacCallum Cancer Centre | 2014", "purpose": "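Knock-downs lowering viability or raising caspase 3/7 activity in vorinostat-treated resistant cells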 (primary screen)", "cell system": "human HCT116-VR colon cancer cells, selected for vorinostat resistance", "reagent": "siRNA pool against human genes, 40 nM siRNA pool", "timing": "vorinostat for 24 h, read-out about 72 h after transfection", "conditions": "vorinostat at 2.5 µM final", "measurement": "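Cell viability by CellTiter-Fluor and caspase 3/7 activity by luminescence, each scaled to mock wells per plate, duplicates averaged, then robust z-scored over all plates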", "scale": "viability robust z-score: higher = more viable cells than screen typical; caspase robust z-score: higher = more caspase 3/7 activity than screen typical", "active means": "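a knock-down is a hit when classed RV1 or RV2 for lowered viability, or CA1 or CA2 for caspase activation; those lethal without drug were dropped; hits were retested singly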", "note": "Shown is an unselected part of about 18,000 reagents tested. Of all reagents, 450 (2.5%) were called active. 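Single biological run; no consistent viability z cut-off exists, so the class columns, not z-scores, define the calls.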 Entries without a mark were called inactive. No sequences are given here."}
{"Target gene": "DVL1 (dishevelled segment polarity protein 1)", "viability hit class": "no change", "caspase hit class": "no change", "viability robust z-score": -0.14, "caspase robust z-score": 4.56}
{"Target gene": "PNMA3 (PNMA family member 3)", "viability hit class": "no change", "caspase hit class": "no change", "viability robust z-score": 1.29, "caspase robust z-score": -0.7}
{"Target gene": "MYRFL (myelin regulatory factor like)", "viability hit class": "no change", "caspase hit class": "no change", "viability robust z-score": -1.82, "caspase robust z-score": 0.42}
{"Target gene": "NT5C (5', 3'-nucleotidase, cytosolic)", "viability hit class": "no change", "caspase hit class": "no change", "viability robust z-score": 0.18, "caspase robust z-score": 0.34}
{"Target gene": "RRS1 (regulator of ribosome synthesis 1)", "viability hit class": "no change", "caspase hit class": "no change", "viability robust z-score": -1.18, "caspase robust z-score": 3.08}
{"Target gene": "ZNF302 (zinc finger protein 302)", "viability hit class": "no change", "caspase hit class": "no change", "viability robust z-score": -1.36, "caspase robust z-score": -1.21}
{"Target gene": "PRUNE1 (prune exopolyphosphatase 1)", "viability hit class": "no change", "caspase hit class": "no change", "viability robust z-score": -1.25, "caspase robust z-score": 2.08}
{"Target gene": "PIPOX (pipecolic acid and sarcosine oxidase)", "viability hit class": "RV2 (reduced viability) (active)", "caspase hit class": "no change", "viability robust z-score": -3.53, "caspase robust z-score": 3.97}
{"Target gene": "VGLL2 (vestigial like family member 2)", "viability hit class": "no change", "caspase hit class": "no change", "viability robust z-score": -0.34, "caspase robust z-score": 0.2}
{"Target gene": "OR8U3 (olfactory receptor family 8 subfamily U member 3)", "viability hit class": "no change", "caspase hit class": "no change", "viability robust z-score": -3.8, "caspase robust z-score": 2.67}
{"Target gene": "HIGD1A (HIG1 hypoxia inducible domain family member 1A)", "viability hit class": "no change", "caspase hit class": "no change", "viability robust z-score": 0.6, "caspase robust z-score": -0.68}
{"Target gene": "CILK1 (ciliogenesis associated kinase 1)", "viability hit class": "no change", "caspase hit class": "no change", "viability robust z-score": -0.78, "caspase robust z-score": 0.98}
{"Target gene": "ZNF274 (zinc finger protein 274)", "viability hit class": "no change", "caspase hit class": "no change", "viability robust z-score": 2.49, "caspase robust z-score": 0.36}
{"Target gene": "PGAM5", "viability hit class": "no change", "caspase hit class": "no change", "viability robust z-score": -3.84, "caspase robust z-score": 0.96}
{"Target gene": "SERPINA12 (serpin family A member 12)", "viability hit class": "no change", "caspase hit class": "no change", "viability robust z-score": 0.56, "caspase robust z-score": -0.04}
{"Target gene": "RARRES1 (retinoic acid receptor responder 1)", "viability hit class": "no change", "caspase hit class": "no change", "viability robust z-score": 1.01, "caspase robust z-score": -0.36}
{"Target gene": "PPP2R3B (protein phosphatase 2 regulatory subunit B''beta)", "viability hit class": "no change", "caspase hit class": "no change", "viability robust z-score": -3.75, "caspase robust z-score": -1.18}
{"Target gene": "ZNF621 (zinc finger protein 621)", "viability hit class": "no change", "caspase hit class": "no change", "viability robust z-score": 0.44, "caspase robust z-score": -0.3}
{"Target gene": "MC3R (melanocortin 3 receptor)", "viability hit class": "no change", "caspase hit class": "no change", "viability robust z-score": -0.94, "caspase robust z-score": -0.04}
{"Target gene": "MRPL16 (mitochondrial ribosomal protein L16)", "viability hit class": "no change", "caspase hit class": "no change", "viability robust z-score": 0.54, "caspase robust z-score": 2.58}
{"Target gene": "PIGH (phosphatidylinositol glycan anchor biosynthesis class H)", "viability hit class": "no change", "caspase hit class": "no change", "viability robust z-score": 0.2, "caspase robust z-score": -0.3}

3 entries from above, set out differently.
VGLL2 (vestigial like family member 2)
- viability hit class: no change
- caspase hit class: no change
- viability robust z-score: -0.34
- caspase robust z-score: 0.2

OR8U3 (olfactory receptor family 8 subfamily U member 3)
- viability hit class: no change
- caspase hit class: no change
- viability robust z-score: -3.8
- caspase robust z-score: 2.67

HIGD1A (HIG1 hypoxia inducible domain family member 1A)
- viability hit class: no change
- caspase hit class: no change
- viability robust z-score: 0.6
- caspase robust z-score: -0.68
